# Source: article PMC7293310
# Amino acid sequences for entries named in this document (tags omitted).
# UniProt P17679: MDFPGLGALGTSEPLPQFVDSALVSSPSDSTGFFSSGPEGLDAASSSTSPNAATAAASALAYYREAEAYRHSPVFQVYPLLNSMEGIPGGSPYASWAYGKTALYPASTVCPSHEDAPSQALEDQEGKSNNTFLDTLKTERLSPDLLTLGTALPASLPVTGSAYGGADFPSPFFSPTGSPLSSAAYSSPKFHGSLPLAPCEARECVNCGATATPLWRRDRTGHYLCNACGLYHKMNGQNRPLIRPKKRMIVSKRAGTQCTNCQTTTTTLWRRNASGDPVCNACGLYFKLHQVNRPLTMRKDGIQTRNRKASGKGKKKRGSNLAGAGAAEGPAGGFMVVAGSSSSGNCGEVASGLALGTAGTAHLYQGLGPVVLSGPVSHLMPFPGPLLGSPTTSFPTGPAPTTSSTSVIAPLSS
# UniProt Q9Z2E1: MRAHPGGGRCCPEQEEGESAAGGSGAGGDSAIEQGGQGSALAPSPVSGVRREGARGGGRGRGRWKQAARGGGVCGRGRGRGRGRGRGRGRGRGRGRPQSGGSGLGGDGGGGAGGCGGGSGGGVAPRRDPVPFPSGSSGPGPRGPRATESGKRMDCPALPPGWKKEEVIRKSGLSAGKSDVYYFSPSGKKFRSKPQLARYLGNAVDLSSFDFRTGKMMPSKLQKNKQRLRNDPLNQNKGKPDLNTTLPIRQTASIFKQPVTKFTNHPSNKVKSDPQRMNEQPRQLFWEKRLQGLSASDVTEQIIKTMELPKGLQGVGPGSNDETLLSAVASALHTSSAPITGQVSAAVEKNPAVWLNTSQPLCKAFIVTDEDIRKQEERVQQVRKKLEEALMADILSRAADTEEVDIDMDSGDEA
# UniProt Q60974: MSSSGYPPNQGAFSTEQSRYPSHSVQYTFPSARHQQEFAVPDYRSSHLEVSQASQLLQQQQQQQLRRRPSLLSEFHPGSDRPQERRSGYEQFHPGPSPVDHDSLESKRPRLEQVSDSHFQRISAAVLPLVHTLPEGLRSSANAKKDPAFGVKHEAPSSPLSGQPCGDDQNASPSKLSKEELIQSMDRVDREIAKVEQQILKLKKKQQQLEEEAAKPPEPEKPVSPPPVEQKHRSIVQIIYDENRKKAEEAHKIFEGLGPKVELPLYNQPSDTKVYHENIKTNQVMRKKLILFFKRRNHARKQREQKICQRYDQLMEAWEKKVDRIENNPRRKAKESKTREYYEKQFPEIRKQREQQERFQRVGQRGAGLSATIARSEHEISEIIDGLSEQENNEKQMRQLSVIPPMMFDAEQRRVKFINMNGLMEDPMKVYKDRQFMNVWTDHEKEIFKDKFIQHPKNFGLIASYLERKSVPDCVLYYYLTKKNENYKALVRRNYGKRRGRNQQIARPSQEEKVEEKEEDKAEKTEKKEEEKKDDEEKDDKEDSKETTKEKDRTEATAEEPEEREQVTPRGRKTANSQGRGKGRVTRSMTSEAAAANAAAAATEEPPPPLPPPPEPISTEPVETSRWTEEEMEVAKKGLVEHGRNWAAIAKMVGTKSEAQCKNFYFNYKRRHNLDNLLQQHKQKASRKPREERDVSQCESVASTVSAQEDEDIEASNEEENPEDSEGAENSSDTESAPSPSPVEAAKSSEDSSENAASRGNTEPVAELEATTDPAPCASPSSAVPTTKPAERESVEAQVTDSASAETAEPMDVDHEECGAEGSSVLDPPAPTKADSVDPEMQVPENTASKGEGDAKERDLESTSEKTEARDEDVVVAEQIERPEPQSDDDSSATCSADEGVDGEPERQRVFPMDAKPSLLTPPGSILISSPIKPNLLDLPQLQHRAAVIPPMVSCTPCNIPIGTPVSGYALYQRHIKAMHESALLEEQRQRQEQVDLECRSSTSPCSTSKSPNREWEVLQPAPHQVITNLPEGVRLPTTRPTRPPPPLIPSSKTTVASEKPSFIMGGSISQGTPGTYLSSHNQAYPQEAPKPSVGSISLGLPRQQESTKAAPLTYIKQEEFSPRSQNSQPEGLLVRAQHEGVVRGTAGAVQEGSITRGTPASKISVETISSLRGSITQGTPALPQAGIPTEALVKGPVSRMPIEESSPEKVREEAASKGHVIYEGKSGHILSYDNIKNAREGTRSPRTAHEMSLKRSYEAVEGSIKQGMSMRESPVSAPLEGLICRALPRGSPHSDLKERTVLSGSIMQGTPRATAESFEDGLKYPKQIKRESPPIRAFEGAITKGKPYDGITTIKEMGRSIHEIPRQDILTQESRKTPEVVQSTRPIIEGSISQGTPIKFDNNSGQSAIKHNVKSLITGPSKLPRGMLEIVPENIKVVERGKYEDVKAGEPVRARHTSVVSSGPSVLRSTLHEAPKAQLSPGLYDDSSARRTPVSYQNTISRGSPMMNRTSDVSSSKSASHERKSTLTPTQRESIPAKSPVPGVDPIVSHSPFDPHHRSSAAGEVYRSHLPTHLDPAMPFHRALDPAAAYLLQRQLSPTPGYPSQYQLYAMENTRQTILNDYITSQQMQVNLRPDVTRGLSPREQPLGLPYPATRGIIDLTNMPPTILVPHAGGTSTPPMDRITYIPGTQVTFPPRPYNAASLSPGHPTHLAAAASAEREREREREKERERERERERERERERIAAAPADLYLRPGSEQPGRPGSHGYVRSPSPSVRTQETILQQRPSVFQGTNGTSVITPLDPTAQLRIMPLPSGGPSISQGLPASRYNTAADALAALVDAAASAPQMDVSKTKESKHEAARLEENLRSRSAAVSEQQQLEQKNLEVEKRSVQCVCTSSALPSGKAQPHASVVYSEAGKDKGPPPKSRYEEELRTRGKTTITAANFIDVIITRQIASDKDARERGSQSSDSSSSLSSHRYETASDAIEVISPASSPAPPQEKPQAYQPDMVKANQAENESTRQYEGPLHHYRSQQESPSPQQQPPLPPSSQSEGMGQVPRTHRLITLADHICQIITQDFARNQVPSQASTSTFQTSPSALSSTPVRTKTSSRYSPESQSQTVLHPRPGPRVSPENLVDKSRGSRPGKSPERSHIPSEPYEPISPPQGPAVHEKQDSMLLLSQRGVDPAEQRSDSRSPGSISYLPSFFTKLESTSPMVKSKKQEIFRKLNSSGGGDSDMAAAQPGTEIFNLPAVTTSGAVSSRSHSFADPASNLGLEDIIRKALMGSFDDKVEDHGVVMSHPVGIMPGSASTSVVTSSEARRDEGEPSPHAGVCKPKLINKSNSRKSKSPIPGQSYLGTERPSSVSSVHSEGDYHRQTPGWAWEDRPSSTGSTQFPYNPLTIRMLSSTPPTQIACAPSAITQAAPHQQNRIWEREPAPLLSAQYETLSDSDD
# UniProt Q03347: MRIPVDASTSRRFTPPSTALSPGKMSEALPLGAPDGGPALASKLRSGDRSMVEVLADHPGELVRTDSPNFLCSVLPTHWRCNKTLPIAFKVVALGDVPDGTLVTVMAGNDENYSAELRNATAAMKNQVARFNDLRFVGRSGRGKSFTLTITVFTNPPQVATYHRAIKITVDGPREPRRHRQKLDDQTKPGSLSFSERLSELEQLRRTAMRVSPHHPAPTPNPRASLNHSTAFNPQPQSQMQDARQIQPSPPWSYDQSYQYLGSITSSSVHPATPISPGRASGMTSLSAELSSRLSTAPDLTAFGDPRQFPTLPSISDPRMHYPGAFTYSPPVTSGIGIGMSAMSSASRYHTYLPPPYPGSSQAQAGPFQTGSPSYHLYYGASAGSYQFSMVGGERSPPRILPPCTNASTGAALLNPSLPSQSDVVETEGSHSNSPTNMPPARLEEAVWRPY
# UniProt P22091: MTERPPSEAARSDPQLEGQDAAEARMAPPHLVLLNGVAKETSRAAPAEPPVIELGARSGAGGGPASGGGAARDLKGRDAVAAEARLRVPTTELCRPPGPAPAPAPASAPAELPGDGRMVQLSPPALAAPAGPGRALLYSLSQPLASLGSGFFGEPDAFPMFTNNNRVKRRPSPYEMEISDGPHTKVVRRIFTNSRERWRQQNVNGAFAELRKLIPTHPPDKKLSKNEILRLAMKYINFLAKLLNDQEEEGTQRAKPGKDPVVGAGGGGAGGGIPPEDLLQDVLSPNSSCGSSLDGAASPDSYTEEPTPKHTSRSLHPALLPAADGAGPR
# These are yes or no findings as the source states them, for the method shown. In cells and extracts the contact can be indirect. A yes stands for co-enrichment or nearness to the bait. Other partners may have been found.
# Biological target: GATA1 (mouse (endogenous in Nsd1−/− BM-derived erythroblasts)) (UniProt P17679)
# Assay: affinity purification with mass spectrometry; immunoprecipitation of endogenous GATA1 followed by mass spectrometry in Nsd1−/− BM-derived erythroblasts expressing wild-type Nsd1 or the inactive Nsd1^N1918Q mutant, kept for 24 h in differentiation medium; each group normalized to IgG control (n = 2)
row,binding,Molecule
1,binds,MBD2 (from UniProt Q9Z2E1 1-414)
2,binds,NCOR1 (from UniProt Q60974 1-2453)
3,binds,RUNX1 (from UniProt Q03347 1-451)
4,binds,TAL1 (from UniProt P22091 1-329)
5,binds,"ZFPM1 (protein, UniProt O35615 1-995) MSRRKQSNPRQIKRSLRDMEAGEEAKAMDSSPKEQEAPDPEAPAIEEPPSPPREDVSPPAVPAPPESPEDPEDMEGQELEMRPQDEEKEEKEEEAAMASPWSGPEELELALQDGQRCVRARLSLTEGLSWGPFYGSIQTRALSPEREEPGPAVTLMVDESCWLRMLPQVLTEEAANSEIYRKDDALWCRVTKVVPSGGLLYVRLVTEPHGAPRHPVQEPVEPGGLAPVHTDIQLLPQQAGMASILATAVINKDVFPCKDCGIWYRSERNLQAHLLYYCASRQRAGSPVSATEEKPKETYPNERVCPFPQCRKSCPSASSLEIHMRSHSGERPFVCLICLSAFTTKANCERHLKVHTDTLSGVCHNCGFISTTRDILYSHLVTNHMVCQPGSKGEIYSPGAGHPAAKLPPDSLAGFQQHSLMHSPLVPADKAPTPSSGLDSKAEVTNGETRVPPQNGGSSESPAAPRTIKVEAAEEPEATRASGPGEPGPQAPSRTPSPHSPNPVRVKTELSSPTPGSSPGPGELTMAGTLFLPQYVFSPDAGTTTVPTAPQASEILAKMSELVHNRLQQGAGSSGAAGTPTGLFSGTKGATCFECEITFNNINNFYVHKRLYCSGRRAPEDPPTVRRPKAATGPARAPAGAAAEPDPSRSSPGPGPREEEASGTTTPEAEAAGRGSEGSQSPGSSVDDAEDDPSRTLCEACNIRFSRHETYTVHKRYYCASRHDPPPRRPPAPTTAPGPAAPALTAPPVRTRRRRKLYELPAAGAPPPAAGPAPVPVVPSPTAELPSSPRPGSASAGPAPALSPSPVPDGPIDLSKRPRRQSPDAPTALPALADYHECTACRVSFHSLEAYLAHKKYSCPAAPLRTTALCPYCPPNGRVRGDLVEHLRQAHGLQVAKPAASPGAEPRTPAERAPRDSPDGRAPRSPSPAPENTPSDPADQGARTPSKGPPAPAPAPGGGGGHRYCRLCNIRFSSLSTFIAHKKYYCSSHAAEHVK"
6,binds,"TBLXR1 (protein, UniProt Q8BHJ5 1-514) MSISSDEVNFLVYRYLQESGFSHSAFTFGIESHISQSNINGALVPPAALISIIQKGLQYVEAEVSINEDGTLFDGRPIESLSLIDAVMPDVVQTRQQAYRDKLAQQHAAAAAAAAAATNQQGSAKNGENTANGEENGAHTIANNHTDMMEVDGDVEIPSNKAVVLRGHESEVFICAWNPVSDLLASGSGDSTARIWNLSENSTSGPTQLVLRHCIREGGQDVPSNKDVTSLDWNSEGTLLATGSYDGFARIWTKDGNLASTLGQHKGPIFALKWNKKGNFILSAGVDKTTIIWDAHTGEAKQQFPFHSAPALDVDWQSNNTFASCSTDMCIHVCKLGQDRPIKTFQGHTNEVNAIKWDPTGNLLASCSDDMTLKIWSMKQDNCVHDLQAHNKEIYTIKWSPTGPGTNNPNANLMLASASFDSTVRLWDVDRGICIHTLTKHQEPVYSVAFSPDGRYLASGSFDKCVHIWNTQTGALVHSYRGTGGIFEVCWNAAGDKVGASASDGSVCVLDLRK"
